Data taken from the supplement of paper PMC10849652.
The list shows a part of the results.

Amino acid sequences for entries named in this document (tags omitted). A change or cut given only in a name is not applied to a line headed by its entry.
UniProt P06730, whole entry, looked up: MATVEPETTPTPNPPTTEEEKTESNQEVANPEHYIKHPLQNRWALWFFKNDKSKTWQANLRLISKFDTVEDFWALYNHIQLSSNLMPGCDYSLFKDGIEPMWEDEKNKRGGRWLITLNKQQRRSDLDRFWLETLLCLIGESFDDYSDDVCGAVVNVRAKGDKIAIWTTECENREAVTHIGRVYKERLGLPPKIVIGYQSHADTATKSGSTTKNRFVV
UniProt O75821, whole entry, looked up: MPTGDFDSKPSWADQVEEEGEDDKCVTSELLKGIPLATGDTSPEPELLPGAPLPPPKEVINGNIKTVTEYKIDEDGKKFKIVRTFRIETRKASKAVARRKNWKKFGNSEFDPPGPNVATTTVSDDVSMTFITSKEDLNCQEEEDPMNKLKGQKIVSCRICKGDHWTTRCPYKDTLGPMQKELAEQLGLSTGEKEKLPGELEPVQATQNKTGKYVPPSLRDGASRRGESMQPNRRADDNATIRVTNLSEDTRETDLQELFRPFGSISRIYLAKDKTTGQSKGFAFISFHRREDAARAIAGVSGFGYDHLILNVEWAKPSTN
UniProt Q9NPA8: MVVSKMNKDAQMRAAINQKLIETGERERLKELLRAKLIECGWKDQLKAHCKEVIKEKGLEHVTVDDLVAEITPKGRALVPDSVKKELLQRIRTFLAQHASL
UniProt Q0PNE2: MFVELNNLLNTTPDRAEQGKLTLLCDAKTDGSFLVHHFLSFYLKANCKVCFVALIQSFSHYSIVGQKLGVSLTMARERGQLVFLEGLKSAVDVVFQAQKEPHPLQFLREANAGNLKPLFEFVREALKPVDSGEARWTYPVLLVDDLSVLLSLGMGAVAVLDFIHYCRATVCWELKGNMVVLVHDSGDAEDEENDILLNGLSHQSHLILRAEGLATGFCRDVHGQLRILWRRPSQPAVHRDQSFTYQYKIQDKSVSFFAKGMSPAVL
UniProt Q9UHF1: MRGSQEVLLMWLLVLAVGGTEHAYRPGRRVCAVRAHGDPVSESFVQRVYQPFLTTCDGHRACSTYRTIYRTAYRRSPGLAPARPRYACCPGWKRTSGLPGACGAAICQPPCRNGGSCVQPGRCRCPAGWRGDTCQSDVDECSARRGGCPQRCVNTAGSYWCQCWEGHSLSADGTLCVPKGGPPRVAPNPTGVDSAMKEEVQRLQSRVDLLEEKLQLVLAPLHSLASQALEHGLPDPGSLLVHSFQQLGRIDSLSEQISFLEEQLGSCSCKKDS
UniProt P13929, whole entry, looked up: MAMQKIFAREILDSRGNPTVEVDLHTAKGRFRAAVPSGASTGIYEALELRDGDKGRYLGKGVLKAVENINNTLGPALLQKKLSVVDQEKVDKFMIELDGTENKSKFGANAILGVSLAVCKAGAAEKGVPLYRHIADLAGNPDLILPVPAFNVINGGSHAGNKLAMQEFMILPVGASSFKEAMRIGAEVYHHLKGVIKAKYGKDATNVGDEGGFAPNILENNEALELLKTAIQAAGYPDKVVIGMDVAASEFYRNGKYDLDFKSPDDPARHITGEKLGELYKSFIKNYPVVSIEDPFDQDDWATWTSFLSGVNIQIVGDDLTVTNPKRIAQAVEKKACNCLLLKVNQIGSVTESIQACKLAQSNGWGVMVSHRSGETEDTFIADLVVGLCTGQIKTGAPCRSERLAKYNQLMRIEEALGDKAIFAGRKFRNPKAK
UniProt O43432, whole entry, looked up: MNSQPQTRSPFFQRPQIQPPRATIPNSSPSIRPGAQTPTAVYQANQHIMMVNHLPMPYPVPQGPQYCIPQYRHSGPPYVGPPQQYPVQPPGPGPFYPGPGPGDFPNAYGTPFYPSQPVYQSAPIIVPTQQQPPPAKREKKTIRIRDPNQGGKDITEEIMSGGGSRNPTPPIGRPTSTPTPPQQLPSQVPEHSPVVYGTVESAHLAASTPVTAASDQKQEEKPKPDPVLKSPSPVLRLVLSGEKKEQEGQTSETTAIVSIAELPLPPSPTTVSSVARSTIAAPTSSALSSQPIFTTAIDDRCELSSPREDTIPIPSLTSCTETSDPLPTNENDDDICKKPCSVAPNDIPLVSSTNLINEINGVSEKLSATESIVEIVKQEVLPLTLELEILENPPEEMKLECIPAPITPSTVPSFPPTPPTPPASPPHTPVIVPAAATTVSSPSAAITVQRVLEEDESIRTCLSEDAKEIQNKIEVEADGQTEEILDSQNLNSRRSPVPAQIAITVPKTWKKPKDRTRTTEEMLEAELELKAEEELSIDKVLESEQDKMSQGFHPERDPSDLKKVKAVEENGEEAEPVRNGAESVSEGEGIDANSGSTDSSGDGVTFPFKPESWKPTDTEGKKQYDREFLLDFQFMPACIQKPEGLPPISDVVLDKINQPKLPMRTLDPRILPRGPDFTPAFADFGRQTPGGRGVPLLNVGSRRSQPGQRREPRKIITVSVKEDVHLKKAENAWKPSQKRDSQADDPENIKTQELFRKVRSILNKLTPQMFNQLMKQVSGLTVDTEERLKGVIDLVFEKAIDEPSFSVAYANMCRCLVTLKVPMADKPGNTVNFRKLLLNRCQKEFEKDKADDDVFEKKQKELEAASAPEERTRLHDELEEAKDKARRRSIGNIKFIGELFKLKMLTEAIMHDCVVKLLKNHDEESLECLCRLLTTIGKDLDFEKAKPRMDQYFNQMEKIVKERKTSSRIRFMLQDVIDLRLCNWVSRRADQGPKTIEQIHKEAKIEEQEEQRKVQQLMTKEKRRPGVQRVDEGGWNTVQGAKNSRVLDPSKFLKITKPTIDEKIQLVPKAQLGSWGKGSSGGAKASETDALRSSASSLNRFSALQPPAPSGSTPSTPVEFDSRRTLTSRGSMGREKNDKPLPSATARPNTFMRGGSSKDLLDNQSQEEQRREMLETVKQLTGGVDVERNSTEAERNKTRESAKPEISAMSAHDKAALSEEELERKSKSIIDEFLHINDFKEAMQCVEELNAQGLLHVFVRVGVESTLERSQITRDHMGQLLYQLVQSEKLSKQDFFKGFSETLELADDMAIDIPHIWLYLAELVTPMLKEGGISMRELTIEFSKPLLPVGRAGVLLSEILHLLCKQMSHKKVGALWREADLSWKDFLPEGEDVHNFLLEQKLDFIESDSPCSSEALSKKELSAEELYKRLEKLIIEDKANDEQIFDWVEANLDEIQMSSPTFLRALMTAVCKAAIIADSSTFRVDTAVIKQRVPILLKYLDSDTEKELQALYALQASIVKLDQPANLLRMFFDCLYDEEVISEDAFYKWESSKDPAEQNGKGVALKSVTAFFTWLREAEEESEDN
UniProt P06733, whole entry, looked up: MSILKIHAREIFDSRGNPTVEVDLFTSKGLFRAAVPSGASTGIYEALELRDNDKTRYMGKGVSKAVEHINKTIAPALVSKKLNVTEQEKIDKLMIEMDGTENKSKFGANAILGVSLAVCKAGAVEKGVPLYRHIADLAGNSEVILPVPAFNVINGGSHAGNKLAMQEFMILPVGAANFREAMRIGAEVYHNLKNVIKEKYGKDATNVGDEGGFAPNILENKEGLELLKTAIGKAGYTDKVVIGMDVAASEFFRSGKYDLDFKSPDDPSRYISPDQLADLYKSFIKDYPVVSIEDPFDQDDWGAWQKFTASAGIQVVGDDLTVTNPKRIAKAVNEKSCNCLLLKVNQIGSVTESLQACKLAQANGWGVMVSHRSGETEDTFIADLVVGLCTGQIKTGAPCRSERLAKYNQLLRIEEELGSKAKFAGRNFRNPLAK
UniProt P55010, whole entry, looked up: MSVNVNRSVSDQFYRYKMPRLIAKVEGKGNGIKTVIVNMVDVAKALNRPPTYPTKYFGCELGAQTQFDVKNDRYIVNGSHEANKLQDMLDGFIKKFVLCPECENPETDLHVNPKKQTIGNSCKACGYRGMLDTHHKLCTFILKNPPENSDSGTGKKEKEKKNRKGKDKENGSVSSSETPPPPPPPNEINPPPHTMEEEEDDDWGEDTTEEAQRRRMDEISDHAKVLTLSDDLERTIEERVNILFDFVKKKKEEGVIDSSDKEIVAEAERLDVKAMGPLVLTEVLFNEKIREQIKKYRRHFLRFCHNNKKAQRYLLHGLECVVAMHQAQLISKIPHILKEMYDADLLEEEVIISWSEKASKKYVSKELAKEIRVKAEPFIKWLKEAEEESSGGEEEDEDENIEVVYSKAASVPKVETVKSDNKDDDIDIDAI
UniProt O60739, whole entry, looked up: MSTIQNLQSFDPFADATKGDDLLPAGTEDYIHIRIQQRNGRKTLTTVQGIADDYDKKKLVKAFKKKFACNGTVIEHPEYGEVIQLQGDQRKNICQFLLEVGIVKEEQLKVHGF
UniProt Q5NDL2: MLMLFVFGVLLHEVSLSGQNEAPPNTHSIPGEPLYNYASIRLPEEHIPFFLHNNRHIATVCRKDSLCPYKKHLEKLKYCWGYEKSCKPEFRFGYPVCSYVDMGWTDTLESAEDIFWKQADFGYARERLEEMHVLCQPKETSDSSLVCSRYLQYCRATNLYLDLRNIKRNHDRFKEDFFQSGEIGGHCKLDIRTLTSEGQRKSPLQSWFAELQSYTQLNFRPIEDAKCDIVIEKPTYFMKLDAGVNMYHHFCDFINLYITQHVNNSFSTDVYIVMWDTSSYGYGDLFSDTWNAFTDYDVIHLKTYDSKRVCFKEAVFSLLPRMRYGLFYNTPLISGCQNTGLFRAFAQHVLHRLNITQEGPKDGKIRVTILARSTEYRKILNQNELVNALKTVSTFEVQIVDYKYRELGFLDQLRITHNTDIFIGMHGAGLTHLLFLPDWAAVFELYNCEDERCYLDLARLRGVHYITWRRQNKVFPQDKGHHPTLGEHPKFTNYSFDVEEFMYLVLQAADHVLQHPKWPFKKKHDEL
UniProt P05198, whole entry, looked up: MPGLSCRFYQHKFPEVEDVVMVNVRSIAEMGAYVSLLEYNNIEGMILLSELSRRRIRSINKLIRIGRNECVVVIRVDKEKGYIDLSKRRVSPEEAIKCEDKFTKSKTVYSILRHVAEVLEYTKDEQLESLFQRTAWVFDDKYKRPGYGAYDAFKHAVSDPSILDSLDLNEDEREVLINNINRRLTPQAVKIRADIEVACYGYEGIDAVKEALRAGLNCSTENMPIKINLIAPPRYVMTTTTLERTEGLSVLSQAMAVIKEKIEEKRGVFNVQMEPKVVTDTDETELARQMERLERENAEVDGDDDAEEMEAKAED
UniProt Q5UCC4: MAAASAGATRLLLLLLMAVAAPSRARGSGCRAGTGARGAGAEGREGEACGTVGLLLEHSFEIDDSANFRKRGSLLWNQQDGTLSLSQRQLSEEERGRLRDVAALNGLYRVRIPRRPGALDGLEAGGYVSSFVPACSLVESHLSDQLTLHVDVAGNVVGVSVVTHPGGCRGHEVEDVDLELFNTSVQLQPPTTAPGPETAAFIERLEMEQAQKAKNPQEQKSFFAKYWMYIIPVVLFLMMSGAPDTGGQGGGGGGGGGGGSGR
UniProt Q8N766: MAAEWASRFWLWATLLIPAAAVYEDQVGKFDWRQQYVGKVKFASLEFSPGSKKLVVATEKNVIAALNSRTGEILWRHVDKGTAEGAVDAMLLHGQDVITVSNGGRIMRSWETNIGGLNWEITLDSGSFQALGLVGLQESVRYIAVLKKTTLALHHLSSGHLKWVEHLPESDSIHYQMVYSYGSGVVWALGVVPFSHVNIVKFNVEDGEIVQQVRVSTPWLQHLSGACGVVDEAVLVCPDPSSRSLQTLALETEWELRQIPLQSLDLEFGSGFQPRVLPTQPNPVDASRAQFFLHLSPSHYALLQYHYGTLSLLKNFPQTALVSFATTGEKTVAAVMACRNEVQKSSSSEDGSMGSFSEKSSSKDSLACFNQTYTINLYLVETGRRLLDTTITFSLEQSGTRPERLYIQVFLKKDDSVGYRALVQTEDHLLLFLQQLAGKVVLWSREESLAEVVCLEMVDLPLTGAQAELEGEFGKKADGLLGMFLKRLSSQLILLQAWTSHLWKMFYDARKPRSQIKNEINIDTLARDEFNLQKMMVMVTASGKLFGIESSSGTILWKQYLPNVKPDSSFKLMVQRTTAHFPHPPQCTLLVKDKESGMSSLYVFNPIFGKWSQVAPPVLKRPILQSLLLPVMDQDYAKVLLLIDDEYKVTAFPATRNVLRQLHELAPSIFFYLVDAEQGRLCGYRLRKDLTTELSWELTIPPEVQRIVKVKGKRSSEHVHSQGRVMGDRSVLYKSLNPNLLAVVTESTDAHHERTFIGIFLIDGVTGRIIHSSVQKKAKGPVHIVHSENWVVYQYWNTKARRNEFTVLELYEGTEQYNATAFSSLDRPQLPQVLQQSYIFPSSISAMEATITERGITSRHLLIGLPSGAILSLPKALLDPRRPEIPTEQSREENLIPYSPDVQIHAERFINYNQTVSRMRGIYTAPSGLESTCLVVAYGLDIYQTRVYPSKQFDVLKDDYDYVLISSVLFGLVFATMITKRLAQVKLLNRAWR
UniProt Q8IZ81: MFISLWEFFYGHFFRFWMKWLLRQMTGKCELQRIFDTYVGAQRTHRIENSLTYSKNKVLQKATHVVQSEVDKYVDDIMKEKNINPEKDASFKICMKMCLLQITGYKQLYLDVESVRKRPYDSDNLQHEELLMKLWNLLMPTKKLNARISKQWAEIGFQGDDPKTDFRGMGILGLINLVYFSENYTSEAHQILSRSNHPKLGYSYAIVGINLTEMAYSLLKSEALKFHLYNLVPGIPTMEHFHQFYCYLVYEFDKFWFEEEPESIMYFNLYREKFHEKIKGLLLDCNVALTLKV

How the values were obtained:
Assay in all cases: log2 fold change, soluble protein after heating vs DMSO (PISA); higher = thermal stabilisation; K562 cells, 10 uM, 30 min; active = over 0.2 and 3.5 SD of the protein, either way, in both replicates (recomputed)
[1] = compound: C1=CC=C(C=C1)[C@H](COC2=CC3=C(C=C2)NC(=O)N3)NC(=O)C4=CC=CN(C4=O)CC5=CC(=C(C=C5)F)F
Outline: (§1)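 Soluble protein was quantified by TMTpro 16plex LC-MS/MS after channel sums were equalised. It was obtained as the supernatant after 21,000xg for 90 min from pooled aliquots of K562 cells (2×10^6 cells/mL, 10 μM compound, 30 min) heated for 3 min across 48°C-58°C and extracted in PBS with 0.5% NP-40 at 4°C. Thermal stability values are relative to control samples and come from duplicates. They are given as log2 fold changes.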

[2] = compound: CC1=C(SC2=C1C(=N[C@H](C3=NN=C(N32)C)CC(=O)N)C4=CC=C(C=C4)Cl)C
Outline: as §1

[3] = compound: CC1=C2C(=CC=C1)N=C(N(C2=O)C3=CC=CC=C3C)CN4C=NC5=C(N=CN=C54)N
Outline: as §1

[4] = compound: Cc1sc2c(c1C)C(c1ccc(Cl)cc1)=N[C@@H](CC(=O)OC(C)(C)C)c1nnc(C)n1-2
Outline: as §1

[5] = compound: c1ccc([C@@H]2C[C@H]2NC2CCNCC2)cc1
Outline: as §1

Measured: log2 fold change

EPB41L1 (UniProt Q9H4G0)
inactive: [1] -0.038 | [2] 0.041 | [3] 0.143 | [4] 0.019 | [5] 0.032

ENO2 (UniProt U3KQQ1)
inactive: [1] 0.015

EIF4E isoform 2 (UniProt P06730)
inactive: [1] 0.029 | [2] -0.026 | [3] -0.002 | [4] -0.144 | [5] 0.009

EIF3G (UniProt O75821)
inactive: [1] -0.032 | [2] -0.012 | [3] 0.008 | [4] 0.025 | [5] 0.019

EIF4A2 isoform 2 (UniProt Q14240)
inactive: [1] -0.064 | [2] 0.034 | [3] 0.041 | [4] 0.011 | [5] -0.021

ENY2 (UniProt Q9NPA8)
inactive: [1] 0.039 | [2] 0.055 | [3] 0.054 | [4] -0.03 | [5] -0.01

ELP6 (UniProt Q0PNE2)
inactive: [1] -0.014 | [2] 0.03 | [3] 0.046 | [4] -0.012 | [5] 0.01

EGFL7 (UniProt Q9UHF1)
inactive: [1] 0.067

EIF2B4 isoform 2 (UniProt Q9UI10)
inactive: [1] -0.029 | [2] 0.032 | [3] -0.021 | [4] -0.029 | [5] -0.027

Pulled one by one from the entries so far (two):
EIF4A2 isoform 2 (UniProt Q14240)
inactive: [1] -0.064 | [2] 0.034 | [3] 0.041 | [4] 0.011 | [5] -0.021

EIF2B4 isoform 2 (UniProt Q9UI10)
inactive: [1] -0.029 | [2] 0.032 | [3] -0.021 | [4] -0.029 | [5] -0.027

The listing continues.

ENO3 (UniProt P13929)
inactive: [1] -0.02 | [2] 0.008 | [3] -0.049 | [4] -0.052 | [5] -0.005

ELAVL1 isoform 2 (UniProt Q15717)
inactive: [1] 0.002 | [2] -0.064 | [3] -0.105 | [4] 0.168 | [5] 0.048

EIF4G3 isoform 3 (UniProt O43432)
inactive: [1] -0.021 | [2] 0.021 | [3] 0.184 | [4] 0.038 | [5] -0.06

ENO1 isoform 2 (UniProt P06733)
inactive: [1] 0.174 | [2] 0.226 | [3] 0.118 | [4] 0.008 | [5] -0.091

EEF1A2 (UniProt Q05639)
inactive: [1] 0.002 | [2] 0.073 | [3] 0.075 | [4] -0.019 | [5] -0.029

EHBP1L1 (UniProt Q8N3D4)
inactive: [1] -0.016 | [2] 0.065 | [3] 0.052 | [4] -0.022 | [5] -0.051

ENOSF1 (UniProt Q7L5Y1)
inactive: [1] -0.04 | [2] 0.138 | [3] 0.156 | [4] -0.012 | [5] 0.033

EHD1 (UniProt Q9H4M9)
inactive: [1] 0.006 | [2] 0.062 | [3] 0.05 | [4] -0.05 | [5] -0.013

EIF5 (UniProt P55010)
inactive: [1] -0.018 | [2] 0.032 | [3] 0.079 | [4] -0.044 | [5] -0.043

EIF1B (UniProt O60739)
inactive: [1] -0.054

EIF4G1 isoform 8 (UniProt Q04637)
inactive: [1] -0.074 | [2] -0.016 | [3] -0.036 | [4] 0.135 | [5] -0.002

EOGT (UniProt Q5NDL2)
inactive: [1] 0.013 | [2] -0.074 | [3] 0.056 | [4] -0.032 | [5] 0.077

EIF2S1 (UniProt P05198)
inactive: [1] -0.003 | [2] -0.021 | [3] -0.025 | [4] 0.051 | [5] 0.011

EMC10 (UniProt Q5UCC4)
inactive: [1] 0.065 | [2] 0.041 | [3] 0.065 | [4] -0.024 | [5] -0.048

EP300 (UniProt Q09472)
inactive: [1] -0.123 | [2] 0.05 | [3] 0.07 | [4] -0.032 | [5] -0.011

EMC1 (UniProt Q8N766)
inactive: [1] 0.015 | [2] 0.01 | [3] -0.033 | [4] -0.034 | [5] -0.003

ELMOD2 (UniProt Q8IZ81)
inactive: [1] 0.037 | [2] -0.003 | [3] 0.051 | [4] -0.065 | [5] -0.018
